This is a noisy data set.
B1: human tRNA-Pro; a variant is named by its letters at N, in order (parent)
chain: GGCTCGTTGGTCTAGNGGTATGATTCTCGCTTAGGGTGCGAGAGGTCCCGGGTTCNNATCCCGGACGAGCCC

Experiments:
[1] = variants of: B1; assay: tRNA Pol-III promoter activity, log2 (circRNA frequency / plasmid DNA frequency) (log2 ratio); higher = stronger promoter activity; conditions: HEK293T; construct: no Pol-II promoter ((-)CMV library)
[2] = variants of: B1; assay: tRNA 3' processing efficiency (processed reads / all reads, maximum-likelihood estimate) (fraction); higher = more efficient 3' processing; conditions: HEK293T; construct: no Pol-II promoter ((-)CMV library)
[3] = variants of: B1; assay: tRNA 5' processing efficiency (processed reads / all reads, maximum-likelihood estimate) (fraction); higher = more efficient 5' processing; conditions: HEK293T; construct: CMV Pol-II promoter ((+)CMV library, decapped)

| Variant | tRNA Pol-III promoter activity (log2) [1] | tRNA 3' processing efficiency [2] | tRNA 5' processing efficiency [3] |
| --- | --- | --- | --- |
| GGA T8G G18T T53A | 6.51 | 0.5 | – |
| GGA G17C C55T | 5.26 | 0.2 | – |
| TGA G17C T54A | 5.26 | 0.4 | – |
| GGA T19C T54A | 6.74 | 0.14 | – |
| GGC T8A G9C G18T A20C C55T | 5.39 | 0.36 | – |
| GTA | 2.38 | 0.35 | 0.33 |
| GGG T19A | 5.51 | 0.11 | – |
| GGG T19C | 4.32 | 0.25 | 0.03 |
| GGA T19G A20C | 9.8 | 0.94 | – |
| GGA T8A A58T | 3.67 | 0.2 | – |
| GGT G15A | 2.45 | 0.2 | – |
| GGA T59G | 1.1 | 0.39 | – |
| GGA T59A | 1.01 | 0.22 | – |
| GGA T59C | 2.32 | 0.25 | – |
| GGA G9A G17C G18T C55G | 5.63 | 0.31 | – |
| GGA T19C T53A | 4.93 | 0.33 | – |
| GGA T19C T53G | 4.36 | 0.4 | – |
| GGG G9A | 3.58 | 0.28 | – |
| GGG G9T | 2.61 | 0.25 | – |
| TGA T59G | 3.15 | 0.43 | 0.25 |
| TGA T59A | 3.56 | 0.2 | – |
| GGC T8A T54A A58T | 5.45 | 0.62 | – |
| GGT T19A C55A | 5.25 | 0.4 | – |

| Variant | tRNA Pol-III promoter activity (log2) [1] | tRNA 3' processing efficiency [2] | tRNA 5' processing efficiency [3] |
| --- | --- | --- | --- |
| GGT T19A C55T | 5.94 | 0.25 | – |
| GGC A14G G17T | 5.36 | 0.4 | – |
| GGC | 2.24 | 0.26 | – |
| GGT | 3.45 | 0.32 | – |
| GGG | 2.8 | 0.62 | – |
| CGG C55T | 5.36 | 0.13 | – |
| CTA | 2.7 | 0.3 | – |
| GGA G17T G18A A58T | 6.25 | 0.4 | – |
| AGG | 4.22 | 0.54 | – |
| GGA G18T T53A T59C | 7.03 | 0.76 | – |
| TGT A14T | 7.25 | 0.1 | – |
| GGA G9A T54A | 5.11 | 0.21 | – |
| GGA G17C A58C | 4.36 | 0.44 | – |
| GGA G2A | 5.62 | 0.5 | – |
| GGT A20T | 4.57 | 0.71 | – |
| GGT A20G | 2.81 | 0.5 | – |
| GGT A58G T59C | 5.03 | 0.5 | – |
| GGT A58G T59A | 4.71 | 0.38 | – |
| GGA T19A T53C | 8.28 | 0.26 | – |
| GGA T19A T53G | 4.06 | 0.29 | – |
| GGG T54A | 7.54 | 0.14 | – |
| AGA T19G C55T | 3.94 | 0.25 | – |
| GGG A14C A58T | 4.03 | 0.25 | – |

| Variant | tRNA Pol-III promoter activity (log2) [1] | tRNA 3' processing efficiency [2] | tRNA 5' processing efficiency [3] |
| --- | --- | --- | --- |
| GGT A14C | 3.36 | 0.45 | – |
| GGT A14G | 1.3 | 0.4 | – |
| GGT A14T | 2.61 | 0.25 | 0.33 |
| GGA T19A A58G T59A | 3.3 | 0.33 | – |
| GGA G15C T19A | 6.06 | 0.27 | – |
| GGA T8A G17A G18T T53G T54A A58T | 4.77 | 0.4 | – |
| GGA T53G | 1.86 | 0.38 | – |
| GGA T53A | 1.4 | 0.43 | – |
| GGT G9A T53A | 6.25 | 0.2 | – |
| GGC A20T | 2.71 | 0.17 | – |
| GGC A20G | 3.36 | 0.25 | – |
| GGT T59C | 3.78 | 0.27 | – |
| GGT T59G | 2.81 | 0.5 | – |
| GGC A14T | 2.68 | 0.5 | – |
| AGA T59G | 4.16 | 0.67 | – |
| AGA T59A | 5.03 | 0.78 | – |
| GGA G18A C55A | 3.08 | 0.2 | – |
| GGA G17T A58T | 2.43 | 0.13 | – |
| GTA A14C | 1.52 | 0.31 | 0.25 |
| GGA T54A T59C | 5.77 | 0.5 | – |
| CGA G34A | 5.75 | 0.64 | – |
| GGC T59G | 5.36 | 0.4 | – |
| CTA A14C | 6.13 | 0.37 | – |

| Variant | tRNA Pol-III promoter activity (log2) [1] | tRNA 3' processing efficiency [2] | tRNA 5' processing efficiency [3] |
| --- | --- | --- | --- |
| GGG G17A | 3.4 | 0.44 | – |
| GGG G17C | 3.91 | 0.36 | – |
| GGA G17C T53C | 3.4 | 0.89 | – |
| GGA G17C T53A | 3.93 | 0.17 | – |
| GGG T8C T19A | 6.62 | 0.17 | – |
| GGA T8C A14G T59G | 5.53 | 0.33 | – |
| GGA G17A T53G T59A | 5.25 | 0.6 | – |
| GGT A14C T59A | 5.03 | 0.13 | – |
| GGA T8C T59G | 5.75 | 0.21 | – |
| GGA T8C T59C | 6.03 | 0.38 | – |
| GGT G18A | 3.49 | 0.18 | – |
| GGT A14G T59C | 7.75 | 0.07 | – |
| GGA G17T | -0.249 | 0.2 | – |
| GGA T8G T53G | 4.62 | 0.17 | – |
| TGA T53A A58G | 4.34 | 0.25 | – |
| GGA T8C C55A | 3.46 | 0.4 | – |
| GGG T53G A58G | 6.25 | 0.2 | – |
| TGG G9A | 8.03 | 0.12 | – |
| GGG A20T A58G | 9.35 | 0.05 | – |
| AGA T53A | 6.03 | 0.5 | – |
| CGC T54C | 3.94 | 0.14 | – |
| GGA G9A T53G | 4.35 | 0.23 | – |
| GGA G18A A58G T59G | 6.94 | 0.62 | – |

| Variant | tRNA Pol-III promoter activity (log2) [1] | tRNA 3' processing efficiency [2] | tRNA 5' processing efficiency [3] |
| --- | --- | --- | --- |
| GGA C55T A58G T59G | 10.5 | 0.11 | – |
| GGA G9A A14G C55T | 3.67 | 0.6 | – |
| GGA T19C C55A | 4.62 | 0.33 | – |
| GGA T19C C55G | 2.85 | 0.25 | – |
| CGA T19G T53A | 5.45 | 0.25 | – |
| GGA G15T C55T | 1.77 | 0.25 | – |
| GGA G17C T59C | 3.93 | 0.25 | – |
| GGA G17C T59A | 4.45 | 0.25 | – |
| GGG A20T | 2.36 | 0.78 | – |
| GGC G17A | 1.46 | 0.2 | – |
| GGC G17T | 1.54 | 0.25 | – |
| TGA G15T T54A | 6.26 | 0.2 | – |
| CGT | 5.15 | 0.48 | – |
| CGG | 4.11 | 0.38 | – |
| CGC | 7.11 | 0.44 | – |
| GGT G18T C55T | 6.51 | 0.5 | – |
| GGG A14C G15C G18C A20T | 5.53 | 0.17 | – |
| GGC T19A | 3.41 | 0.57 | – |
| GGC T19C | 2.94 | 0.2 | – |
| GGA C55T A58G | 4.01 | 0.29 | – |
| GGA C55T A58T | 1.3 | 0.2 | – |
| GGA C55T A58C | 4.34 | 0.5 | – |

Record cards, as listed above.
GGA C55T A58C reads tRNA Pol-III promoter activity (log2) [1]: 4.34; tRNA 3' processing efficiency [2]: 0.5
CGG reads tRNA Pol-III promoter activity (log2) [1]: 4.11; tRNA 3' processing efficiency [2]: 0.38
GGA G15T C55T reads tRNA Pol-III promoter activity (log2) [1]: 1.77; tRNA 3' processing efficiency [2]: 0.25
GGA C55T A58G T59G reads tRNA Pol-III promoter activity (log2) [1]: 10.5; tRNA 3' processing efficiency [2]: 0.11
